The list is a part of this screen's results and no random one: it gathers tests that were run many times, whatever their T/C, doses with no T/C, and many T/C values between a quarter and a half above the control. Further doses and runs are listed elsewhere. T/C is the treated group as % of the vehicle group. Some doses have a count of surviving animals in place of a T/C: the source holds a T/C of zero for them, seemingly a mark for toxic or unscored doses. Some survivor counts are full or nearly so, which does not show that the dose was tolerated: survival well below the control is almost never listed, so the zero probably covers shortened survival too. Counts of survivors are from the toxicity check (mostly the fifth day) where no day follows; animals may have died later. Schedules are NCI's codes, taken here to give the interval after Q, in days (D) or hours (H), and the number of doses after X. Some schedules carry Z or #; the key to these is not given. Where survival is the endpoint, this PubChem deposit counts one and a half times the control or more as active, and values a quarter to a half above the control carry no call in these data; other NCI protocols may use other cut-offs. Some T/C values carry the count of animals alive at the toxicity check (mostly the fifth day); without a count, all were alive then.
System: L1210 leukemia ip in BDF1 mice, survival T/C
Assay: NCI In Vivo Anticancer Drug Screen. Data for tumor model L1210 Leukemia (intraperitoneal) in B6D2F1 (BDF1) mice
Details: T/C endpoint: mean survival time, higher T/C = longer survival
[1] = dose: 60.0 mg/kg/injection, schedule: Q01DX001 (ip), vehicle: carboxymethylcellulose (CMC)
[2] = dose: 75.0 mg/kg/injection, schedule: Q01DX001 (ip), vehicle: carboxymethylcellulose (CMC)
[3] = dose: 300.0 mg/kg/injection, schedule: Q01DX001 (ip), vehicle: carboxymethylcellulose (CMC)
[4] = dose: 200.0 mg/kg/injection, schedule: Q01DX009 (ip), vehicle: saline
[5] = dose: 400.0 mg/kg/injection, schedule: Q01DX001 (ip), vehicle: saline
[6] = dose: 200.0 mg/kg/injection, schedule: Q04DX003 (ip), vehicle: acetone
[7] = dose: 400.0 mg/kg/injection, schedule: Q04DX003 (ip), vehicle: acetone
[8] = dose: 400.0 mg/kg/injection, schedule: Q04DX003 (ip), vehicle: Klucel (hydroxypropylcellulose) (HPC)
[9] = dose: 400.0 mg/kg/injection, schedule: Q01DX009 (ip), vehicle: saline with Tween-80
[10] = dose: 200.0 mg/kg/injection, schedule: Q01DX009 (ip), vehicle: Klucel (hydroxypropylcellulose) (HPC)

O=C(O)c1ccccc1/C=N/N1C(=O)CSC1=S
survivor count (dose: 15.0 mg/kg/injection, schedule: Q01DX001 (ip), vehicle: carboxymethylcellulose (CMC)): 0 of 6 | survivor count (dose: 30.0 mg/kg/injection, schedule: Q01DX001 (ip), vehicle: carboxymethylcellulose (CMC)): 0 of 6 | survivor count [1]: 0 of 6 | survivor count [2]: 0 of 6 | survivor count (dose: 150.0 mg/kg/injection, schedule: Q01DX001 (ip), vehicle: carboxymethylcellulose (CMC)): 0 of 6 | survivor count [3]: 0 of 6

C=CCCCCCCCC/C=N\NC(=O)c1ccc[n+](C)c1
survivor count [4]: 0 of 3

COc1cc(C=Nc2cc(Cl)c(Cl)c(Cl)c2)ccc1N(CCCl)CCCl
T/C (dose: 44.0 mg/kg/injection, schedule: Q01DX001 (ip), vehicle: carboxymethylcellulose (CMC)): 127 % of control | T/C [1]: 126 % of control | T/C (dose: 66.0 mg/kg/injection, schedule: Q01DX001 (ip), vehicle: carboxymethylcellulose (CMC)): 130 % of control | T/C [2]: 141 % of control | T/C (dose: 100.0 mg/kg/injection, schedule: Q01DX001 (ip), vehicle: carboxymethylcellulose (CMC)): 136 % of control | T/C (dose: 150.0 mg/kg/injection, schedule: Q01DX001 (ip), vehicle: carboxymethylcellulose (CMC), evaluated on day 30): 134 % of control | T/C (dose: 150.0 mg/kg/injection, schedule: Q01DX001 (ip), vehicle: carboxymethylcellulose (CMC), run until all animals had died): 125 % of control | survivor count [3]: 5 of 6

C1OC1[C@@H]1CC[C@H]1C1CO1 (stereo partly drawn)
T/C (dose: 115.0 mg/kg/injection, schedule: Q01DX Z (ip), vehicle: carboxymethylcellulose (CMC)): 127 % of control | T/C (dose: 172.5 mg/kg/injection, schedule: Q01DX Z (ip), vehicle: carboxymethylcellulose (CMC)): 127 % of control | survivor count (dose: 172.5 mg/kg/injection, schedule: Q01DX Z (ip), vehicle: methylcellulose (MC)): 4 of 4 | T/C (dose: 200.0 mg/kg/injection, schedule: Q01DX001 (ip), vehicle: saline): 137 % of control [3 of 4 alive] | survivor count (dose: 250.0 mg/kg/injection, schedule: Q01DX Z (ip), vehicle: carboxymethylcellulose (CMC)): 4 of 6 | survivor count (dose: 300.0 mg/kg/injection, schedule: Q01DX001 (ip), vehicle: saline): 0 of 4 | survivor count [5]: 0 of 4 | survivor count (dose: 500.0 mg/kg/injection, schedule: Q01DX Z (ip), vehicle: carboxymethylcellulose (CMC)): 0 of 6

C=CCOc1ccc2c(cc1=O)C(NC(C)=O)CCc1cc(OC)c(OC)c(OC)c1-2 (stereo not drawn)
T/C (dose: 18.75 mg/kg/injection, schedule: Q01DX009 (ip), vehicle: Klucel (hydroxypropylcellulose) (HPC)): 142 % of control | survivor count (dose: 37.5 mg/kg/injection, schedule: Q01DX009 (ip), vehicle: Klucel (hydroxypropylcellulose) (HPC)): 6 of 6 | survivor count (dose: 75.0 mg/kg/injection, schedule: Q01DX009 (ip), vehicle: Klucel (hydroxypropylcellulose) (HPC)): 2 of 6

C/C(=N\O)c1ccc[n+](Cc2ccc(C)cc2)c1
survivor count (dose: 37.5 mg/kg/injection, schedule: Q01DX001 (ip), vehicle: other): 2 of 6 | survivor count (dose: 75.0 mg/kg/injection, schedule: Q01DX001 (ip), vehicle: other): 0 of 6 | survivor count (dose: 150.0 mg/kg/injection, schedule: Q01DX001 (ip), vehicle: other): 0 of 6 | survivor count (dose: 300.0 mg/kg/injection, schedule: Q01DX001 (ip), vehicle: other): 0 of 6

COc1cc(Br)c(CC2c3cc(OCc4ccccc4)c(OC)cc3CCN2C)cc1OC (stereo not drawn)
survivor count [6]: 1 of 6 | survivor count [7]: 0 of 6

NC(N)=N/N=C(\C(=N\N=C(N)N)c1ccccc1)c1ccccc1
survivor count (dose: 240.0 mg/kg/injection, schedule: Q01DX Z (ip), vehicle: methylcellulose (MC)): 0 of 6 | survivor count (dose: 360.0 mg/kg/injection, schedule: Q01DX Z (ip), vehicle: methylcellulose (MC)): 0 of 6 | survivor count (dose: 480.0 mg/kg/injection, schedule: Q01DX Z (ip), vehicle: methylcellulose (MC)): 0 of 6

O=C(/C(=C\c1ccccc1)N1CCOCC1)c1ccc(Cl)cc1
survivor count (dose: 150.0 mg/kg/injection, schedule: Q01DX009 (ip), vehicle: Klucel (hydroxypropylcellulose) (HPC)): 1 of 6 | survivor count (dose: 200.0 mg/kg/injection, schedule: Q04DX003 (ip), vehicle: saline with Tween-80): 6 of 6 | survivor count (dose: 225.0 mg/kg/injection, schedule: Q01DX009 (ip), vehicle: Klucel (hydroxypropylcellulose) (HPC)): 3 of 6 | survivor count (dose: 400.0 mg/kg/injection, schedule: Q04DX003 (ip), vehicle: saline with Tween-80): 1 of 6

CC1(C)C(=NNC(N)=O)C(C)(C)C1=NNC(N)=O
survivor count (dose: 200.0 mg/kg/injection, schedule: Q04DX003 (ip), vehicle: Klucel (hydroxypropylcellulose) (HPC)): 6 of 6 | survivor count [8]: 6 of 6

Nc1nc(NCCCc2ccccc2)c([N+](=O)[O-])c(=O)[nH]1
survivor count [9]: 6 of 6

CC(C)(Cc1c[nH]c2ccccc12)NC(=O)c1ccccc1
survivor count [10]: 6 of 6

CCOC(=O)CC(C)=O.CCOC(=O)CC(C)=O.CCOC(=O)CC(C)=O.[Al]
survivor count (dose: 50.0 mg/kg/injection, schedule: Q01DX009 (ip), vehicle: Klucel (hydroxypropylcellulose) (HPC)): 3 of 3 | survivor count (dose: 100.0 mg/kg/injection, schedule: Q01DX005 (ip), vehicle: Klucel (hydroxypropylcellulose) (HPC)): 3 of 3 | survivor count (dose: 200.0 mg/kg/injection, schedule: Q01DX005 (ip), vehicle: Klucel (hydroxypropylcellulose) (HPC)): 3 of 3 | survivor count (dose: 400.0 mg/kg/injection, schedule: Q01DX005 (ip), vehicle: Klucel (hydroxypropylcellulose) (HPC)): 1 of 3

C=C(C)COc1c(C)c(C)c(OCC(=C)C)c(C)c1C
survivor count (dose: 200.0 mg/kg/injection, schedule: Q01DX001 (ip), vehicle: DMSO): 6 of 6

O=P(O)(N(CCCl)CCCl)N1CCN(P(=O)(O)N(CCCl)CCCl)CC1
T/C (dose: 100.0 mg/kg/injection, schedule: Q01DX015 (ip), vehicle: saline): 147 % of control | T/C (dose: 300.0 mg/kg/injection, schedule: Q01DX015 (ip), vehicle: saline): 137 % of control

C=C(Br)C(C)N (stereo not drawn)
survivor count [4]: 1 of 6 | survivor count (dose: 400.0 mg/kg/injection, schedule: Q01DX009 (ip), vehicle: saline): 0 of 6

CCCCOc1c(OCCCC)c(=O)c1=O
survivor count [5]: 3 of 6 | survivor count (dose: 600.0 mg/kg/injection, schedule: Q01DX001 (ip), vehicle: saline): 0 of 6

O=P(CCl)(CCl)CCl
survivor count (dose: 200.0 mg/kg/injection, schedule: Q01DX009 (ip), vehicle: saline with Tween-80): 6 of 6 | survivor count [9]: 2 of 6

CCCCCCCCC(=O)N1CCN(C)CC1
survivor count (dose: 200.0 mg/kg/injection, schedule: Q04DX002 (ip), vehicle: saline): 1 of 3 | survivor count (dose: 400.0 mg/kg/injection, schedule: Q04DX002 (ip), vehicle: saline): 0 of 3

CC(=O)NC1CCCCCC1I (stereo not drawn)
survivor count (dose: 75.0 mg/kg/injection, schedule: Q01DX001 (ip), vehicle: acetone): 0 of 6 | survivor count (dose: 150.0 mg/kg/injection, schedule: Q01DX001 (ip), vehicle: acetone): 0 of 6 | survivor count (dose: 300.0 mg/kg/injection, schedule: Q01DX001 (ip), vehicle: acetone): 0 of 6

O=S(=O)(O)c1ccc(-c2ccccc2)cc1
survivor count [10]: 2 of 6 | survivor count [8]: 3 of 6

Cc1ccccc1C[P+](c1ccccc1)(c1ccccc1)c1ccccc1
survivor count (dose: 25.0 mg/kg/injection, schedule: Q01DX009 (ip), vehicle: acetone): 4 of 6 | survivor count (dose: 50.0 mg/kg/injection, schedule: Q01DX009 (ip), vehicle: acetone): 0 of 6 | survivor count (dose: 100.0 mg/kg/injection, schedule: Q04DX003 (ip), vehicle: acetone): 0 of 6 | survivor count [6]: 0 of 6 | survivor count [7]: 0 of 6

From PubChem BioAssay AID248 (DTP/NCI, 2004)
